# Assay results reported in the supplement of paper PMC7666118.
# Protein sequences, listed by entry. Tags and fused reporters are not part of them. Lines headed by an entry give the natural chain unless they say otherwise; changes in a name come on top.
# UniProt P17844: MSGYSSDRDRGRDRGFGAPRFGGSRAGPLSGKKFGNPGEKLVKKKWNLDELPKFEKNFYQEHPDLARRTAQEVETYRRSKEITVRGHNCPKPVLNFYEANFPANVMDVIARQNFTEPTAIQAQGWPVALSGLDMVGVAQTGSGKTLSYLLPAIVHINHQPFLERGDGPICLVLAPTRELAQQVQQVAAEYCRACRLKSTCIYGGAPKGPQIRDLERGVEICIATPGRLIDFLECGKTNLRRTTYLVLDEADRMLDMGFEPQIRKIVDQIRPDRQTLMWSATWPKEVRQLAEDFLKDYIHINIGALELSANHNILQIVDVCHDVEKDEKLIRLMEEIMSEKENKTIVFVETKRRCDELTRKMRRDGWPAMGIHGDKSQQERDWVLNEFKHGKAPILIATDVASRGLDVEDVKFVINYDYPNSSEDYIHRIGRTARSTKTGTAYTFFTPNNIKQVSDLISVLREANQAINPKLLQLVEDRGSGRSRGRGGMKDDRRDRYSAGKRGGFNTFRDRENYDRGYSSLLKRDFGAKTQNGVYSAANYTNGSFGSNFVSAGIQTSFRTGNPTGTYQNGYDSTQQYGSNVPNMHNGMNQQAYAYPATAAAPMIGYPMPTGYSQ
# UniProt Q6P3S1: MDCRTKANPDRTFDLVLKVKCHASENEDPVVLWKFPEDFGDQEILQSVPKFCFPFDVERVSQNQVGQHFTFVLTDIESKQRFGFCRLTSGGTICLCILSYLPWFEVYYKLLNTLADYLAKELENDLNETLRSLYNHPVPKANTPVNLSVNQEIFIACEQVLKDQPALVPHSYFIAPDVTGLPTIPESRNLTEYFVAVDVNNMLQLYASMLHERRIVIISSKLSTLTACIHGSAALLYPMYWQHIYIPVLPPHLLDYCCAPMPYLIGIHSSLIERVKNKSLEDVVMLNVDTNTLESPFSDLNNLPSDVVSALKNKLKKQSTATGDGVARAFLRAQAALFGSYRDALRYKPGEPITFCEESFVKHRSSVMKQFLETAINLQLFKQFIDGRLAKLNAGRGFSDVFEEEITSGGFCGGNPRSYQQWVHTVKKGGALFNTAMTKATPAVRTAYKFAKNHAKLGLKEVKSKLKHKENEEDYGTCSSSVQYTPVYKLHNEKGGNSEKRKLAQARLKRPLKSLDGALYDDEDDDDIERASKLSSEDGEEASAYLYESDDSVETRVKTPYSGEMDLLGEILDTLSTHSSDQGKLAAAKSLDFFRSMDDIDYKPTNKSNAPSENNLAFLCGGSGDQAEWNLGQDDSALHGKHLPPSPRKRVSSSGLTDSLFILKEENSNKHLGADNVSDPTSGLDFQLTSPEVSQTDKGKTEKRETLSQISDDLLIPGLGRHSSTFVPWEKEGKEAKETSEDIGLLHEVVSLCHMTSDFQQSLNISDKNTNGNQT
# UniProt Q8TEB1, whole entry: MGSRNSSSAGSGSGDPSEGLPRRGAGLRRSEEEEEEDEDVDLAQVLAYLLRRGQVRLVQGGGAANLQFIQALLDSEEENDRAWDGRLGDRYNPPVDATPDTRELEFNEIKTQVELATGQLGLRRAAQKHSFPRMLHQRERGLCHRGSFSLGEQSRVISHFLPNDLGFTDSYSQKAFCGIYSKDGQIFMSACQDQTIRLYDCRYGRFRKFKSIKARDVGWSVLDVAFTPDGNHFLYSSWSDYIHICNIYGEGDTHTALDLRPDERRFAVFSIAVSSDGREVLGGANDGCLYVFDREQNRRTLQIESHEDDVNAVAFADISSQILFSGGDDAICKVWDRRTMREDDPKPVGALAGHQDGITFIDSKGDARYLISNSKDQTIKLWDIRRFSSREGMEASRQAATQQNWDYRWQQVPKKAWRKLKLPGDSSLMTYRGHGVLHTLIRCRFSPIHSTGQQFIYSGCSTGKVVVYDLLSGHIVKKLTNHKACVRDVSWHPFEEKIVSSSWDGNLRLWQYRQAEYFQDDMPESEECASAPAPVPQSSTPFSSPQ
# UniProt Q9H0L4: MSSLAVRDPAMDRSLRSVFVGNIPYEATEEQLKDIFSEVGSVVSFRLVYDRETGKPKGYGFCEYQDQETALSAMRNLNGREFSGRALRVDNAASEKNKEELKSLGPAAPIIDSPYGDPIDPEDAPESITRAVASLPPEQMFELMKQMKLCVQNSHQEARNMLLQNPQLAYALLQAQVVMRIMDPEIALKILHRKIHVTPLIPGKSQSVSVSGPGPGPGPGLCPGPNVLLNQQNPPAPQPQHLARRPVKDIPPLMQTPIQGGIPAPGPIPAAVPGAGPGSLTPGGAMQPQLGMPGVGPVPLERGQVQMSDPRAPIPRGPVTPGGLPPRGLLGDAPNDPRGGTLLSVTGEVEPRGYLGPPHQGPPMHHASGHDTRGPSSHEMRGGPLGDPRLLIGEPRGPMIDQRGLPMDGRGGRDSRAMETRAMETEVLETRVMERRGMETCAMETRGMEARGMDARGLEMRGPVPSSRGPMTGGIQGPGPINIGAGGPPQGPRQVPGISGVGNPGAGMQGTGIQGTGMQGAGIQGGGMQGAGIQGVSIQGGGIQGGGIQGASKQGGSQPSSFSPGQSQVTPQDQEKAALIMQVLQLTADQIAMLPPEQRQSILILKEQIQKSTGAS
# UniProt P68400, whole entry, looked up: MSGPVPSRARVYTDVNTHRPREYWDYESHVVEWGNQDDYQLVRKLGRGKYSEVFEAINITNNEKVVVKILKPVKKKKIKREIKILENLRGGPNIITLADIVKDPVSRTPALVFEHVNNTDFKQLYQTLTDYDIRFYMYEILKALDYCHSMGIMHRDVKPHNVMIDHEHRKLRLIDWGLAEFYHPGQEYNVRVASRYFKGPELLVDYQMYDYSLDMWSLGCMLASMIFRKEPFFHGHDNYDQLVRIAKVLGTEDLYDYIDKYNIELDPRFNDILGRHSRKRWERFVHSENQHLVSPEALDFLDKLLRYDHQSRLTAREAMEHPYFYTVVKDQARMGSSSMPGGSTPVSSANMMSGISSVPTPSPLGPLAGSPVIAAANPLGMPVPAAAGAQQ
# UniProt O75937: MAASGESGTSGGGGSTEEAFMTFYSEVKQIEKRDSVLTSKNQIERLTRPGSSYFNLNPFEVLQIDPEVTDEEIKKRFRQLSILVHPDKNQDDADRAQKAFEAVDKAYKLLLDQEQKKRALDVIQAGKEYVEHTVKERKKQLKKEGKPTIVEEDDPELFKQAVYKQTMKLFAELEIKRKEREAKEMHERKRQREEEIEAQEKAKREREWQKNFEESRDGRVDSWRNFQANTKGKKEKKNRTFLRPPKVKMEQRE
# UniProt Q96F07, whole entry: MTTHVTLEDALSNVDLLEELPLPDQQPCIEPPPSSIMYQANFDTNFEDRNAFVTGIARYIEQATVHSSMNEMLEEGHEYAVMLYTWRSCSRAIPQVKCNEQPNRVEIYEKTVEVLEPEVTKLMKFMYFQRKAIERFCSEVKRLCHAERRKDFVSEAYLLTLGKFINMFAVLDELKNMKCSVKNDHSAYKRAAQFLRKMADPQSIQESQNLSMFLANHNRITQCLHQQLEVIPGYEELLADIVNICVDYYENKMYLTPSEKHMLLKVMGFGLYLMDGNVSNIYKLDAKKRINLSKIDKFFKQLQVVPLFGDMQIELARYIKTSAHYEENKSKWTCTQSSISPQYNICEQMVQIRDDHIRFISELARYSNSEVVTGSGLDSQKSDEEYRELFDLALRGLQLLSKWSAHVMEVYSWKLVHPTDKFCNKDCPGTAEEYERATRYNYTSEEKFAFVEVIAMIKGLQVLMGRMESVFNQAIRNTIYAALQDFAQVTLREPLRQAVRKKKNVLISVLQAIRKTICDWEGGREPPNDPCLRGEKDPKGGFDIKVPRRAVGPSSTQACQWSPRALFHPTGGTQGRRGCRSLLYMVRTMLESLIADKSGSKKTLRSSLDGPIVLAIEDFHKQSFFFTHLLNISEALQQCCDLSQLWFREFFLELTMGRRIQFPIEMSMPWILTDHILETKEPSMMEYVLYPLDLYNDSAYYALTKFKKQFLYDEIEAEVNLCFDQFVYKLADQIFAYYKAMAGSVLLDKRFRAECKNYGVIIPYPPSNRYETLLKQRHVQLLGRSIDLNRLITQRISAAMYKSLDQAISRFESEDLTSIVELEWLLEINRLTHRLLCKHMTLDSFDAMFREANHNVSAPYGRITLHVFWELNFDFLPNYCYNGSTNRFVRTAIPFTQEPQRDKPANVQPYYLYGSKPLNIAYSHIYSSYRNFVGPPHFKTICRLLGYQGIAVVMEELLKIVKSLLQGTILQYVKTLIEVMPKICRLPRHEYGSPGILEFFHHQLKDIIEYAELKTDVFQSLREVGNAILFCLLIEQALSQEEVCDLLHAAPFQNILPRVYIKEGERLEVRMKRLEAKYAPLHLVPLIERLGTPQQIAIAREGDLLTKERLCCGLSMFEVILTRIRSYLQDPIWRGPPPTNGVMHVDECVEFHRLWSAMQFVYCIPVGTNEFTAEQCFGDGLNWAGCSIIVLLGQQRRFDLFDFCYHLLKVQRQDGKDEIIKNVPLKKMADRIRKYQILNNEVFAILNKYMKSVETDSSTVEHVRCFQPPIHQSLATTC
# UniProt Q9UJU6: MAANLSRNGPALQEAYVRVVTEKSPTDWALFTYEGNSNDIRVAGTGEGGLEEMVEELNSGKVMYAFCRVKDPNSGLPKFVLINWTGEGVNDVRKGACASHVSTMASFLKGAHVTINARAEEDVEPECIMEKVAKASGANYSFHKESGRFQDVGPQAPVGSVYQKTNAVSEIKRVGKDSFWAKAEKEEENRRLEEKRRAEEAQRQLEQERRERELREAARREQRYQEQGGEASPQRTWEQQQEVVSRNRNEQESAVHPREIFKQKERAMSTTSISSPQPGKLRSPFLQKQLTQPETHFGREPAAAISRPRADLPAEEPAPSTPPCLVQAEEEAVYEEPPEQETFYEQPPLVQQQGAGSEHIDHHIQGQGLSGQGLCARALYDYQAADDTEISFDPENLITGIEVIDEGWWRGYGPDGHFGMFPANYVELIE
# UniProt Q5QP82: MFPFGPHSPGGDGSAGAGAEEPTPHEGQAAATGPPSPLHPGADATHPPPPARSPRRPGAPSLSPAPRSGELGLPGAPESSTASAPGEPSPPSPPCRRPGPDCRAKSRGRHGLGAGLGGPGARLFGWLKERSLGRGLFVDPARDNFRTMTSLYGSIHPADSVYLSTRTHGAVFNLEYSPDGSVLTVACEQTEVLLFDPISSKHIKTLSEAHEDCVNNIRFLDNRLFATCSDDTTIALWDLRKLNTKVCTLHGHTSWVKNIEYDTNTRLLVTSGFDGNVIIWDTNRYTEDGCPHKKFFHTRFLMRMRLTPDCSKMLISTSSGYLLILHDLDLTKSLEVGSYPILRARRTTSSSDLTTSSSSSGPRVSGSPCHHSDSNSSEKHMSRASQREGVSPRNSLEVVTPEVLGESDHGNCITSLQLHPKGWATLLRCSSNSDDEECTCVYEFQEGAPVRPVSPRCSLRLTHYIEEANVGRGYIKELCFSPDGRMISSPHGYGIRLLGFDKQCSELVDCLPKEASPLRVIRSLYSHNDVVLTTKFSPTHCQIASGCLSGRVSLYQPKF
# The list shows a part of the results.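 How the source made its calls: active = dose-dependent thermal stabilisation significant by F-test of dose-response against flat model at 10% FDR; inactive = not significant.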
# Compound: Nc1nc2c(ncn2[C@@H]2O[C@H](COP(=O)(O)OP(=O)(O)OP(=O)(O)O)[C@@H](O)[C@H]2O)c(=O)[nH]1
# Assay: dose-dependent thermal stabilisation call (2D-TPP, DLPTP, 10% FDR) (binary (1 = stabilised)); higher = stabilised by the compound
# Conditions: system: Jurkat gel-filtered lysate; concentration range 1-500 µM
row,Target,dose-dependent thermal stabilisation call
1,DDX5 (UniProt P17844),active: 1
2,DENND1B (UniProt Q6P3S1),inactive: 0
3,DCAF11 (UniProt Q8TEB1),inactive: 0
4,CSTF2T (UniProt Q9H0L4),inactive: 0
5,CSNK2A1 (UniProt P68400),active: 1
6,DNAJC8 (UniProt O75937),inactive: 0
7,CYFIP2 (UniProt Q96F07),inactive: 0
8,DBNL (UniProt Q9UJU6),inactive: 0
9,DCAF10 (UniProt Q5QP82),inactive: 0
